# Results as given in US20120076785A1, “METHOD FOR INHIBITING NEURODEGENERATION” (GENENTECH, INC., priority 2009, published 2012).
# For at least one compound, name, drawing or mass did not settle the structure.
# Test system: sensory axons
# Assay: NGF deprivation assay in Campenot chambers (local sensory axon degeneration)
# Type: cell-based, mouse
# Description: Materials and methods used to generate the data shown in this figure are as follows. To examine whether ligand is required for DR6 function in sensory axonal degeneration, a compartmented culture analysis of sensory axon growth and degeneration was carried out as follows. A Campenot nerve cell chamber system was used to isolate neuronal processes (axons) from the cell bodies in different compartments (separate fluid environments), analogous to neuronal cell bodies in one location of the nervous system projecting their axons to a distal target in another location. The assay was carried out as originally described by Campenot (Campenot et al., J. Neurosci. 11(4): 1126-39 (1991)) with the following modifications. […]
# To trigger local axonal degeneration, NGF-containing medium from axonal compartments was substituted with neurobasal medium with an NGF blocking antibody (anti-NGF, Genentech, Inc., 20 ug/ml). Zero hours, 6 hours, or 24 to 48 hours following NGF deprivation, sensory neurons were fixed in 4% PFA for 30 minutes at room temperature and processed for immunofluorescence staining with axonal marker TUJ-1 (Covance, 1:500 dilution) to visualize degenerating axons by fluorescence microscopy (FIG. 11B) (as above described in Example 7). […]
structure (smiles),measurement,setting,value
Oc1c2ccccc2c2c3c(cccc13)N=N2 [SP600125],axonal degeneration after NGF deprivation,"24 hours anti-NGF, SP 600125 1 uM, Z-IETD-FMK 10 uM, Z-DEVD-FMK 10 uM",delayed
same,local degeneration of sensory axons after NGF deprivation,"SP600125 10 μM added at time of deprivation, 24 hr",largely blocked
